Experimental data published in PMC10165364.
Construct, isoform or probe ends are uncertain for at least one entry. At least one verdict was read from the data and is not stated in words by the source.

By UniProt entry, the sequences of proteins in these tests, tags left out. Residues count along the entry.
UniProt Q13472, 16-934 A176V: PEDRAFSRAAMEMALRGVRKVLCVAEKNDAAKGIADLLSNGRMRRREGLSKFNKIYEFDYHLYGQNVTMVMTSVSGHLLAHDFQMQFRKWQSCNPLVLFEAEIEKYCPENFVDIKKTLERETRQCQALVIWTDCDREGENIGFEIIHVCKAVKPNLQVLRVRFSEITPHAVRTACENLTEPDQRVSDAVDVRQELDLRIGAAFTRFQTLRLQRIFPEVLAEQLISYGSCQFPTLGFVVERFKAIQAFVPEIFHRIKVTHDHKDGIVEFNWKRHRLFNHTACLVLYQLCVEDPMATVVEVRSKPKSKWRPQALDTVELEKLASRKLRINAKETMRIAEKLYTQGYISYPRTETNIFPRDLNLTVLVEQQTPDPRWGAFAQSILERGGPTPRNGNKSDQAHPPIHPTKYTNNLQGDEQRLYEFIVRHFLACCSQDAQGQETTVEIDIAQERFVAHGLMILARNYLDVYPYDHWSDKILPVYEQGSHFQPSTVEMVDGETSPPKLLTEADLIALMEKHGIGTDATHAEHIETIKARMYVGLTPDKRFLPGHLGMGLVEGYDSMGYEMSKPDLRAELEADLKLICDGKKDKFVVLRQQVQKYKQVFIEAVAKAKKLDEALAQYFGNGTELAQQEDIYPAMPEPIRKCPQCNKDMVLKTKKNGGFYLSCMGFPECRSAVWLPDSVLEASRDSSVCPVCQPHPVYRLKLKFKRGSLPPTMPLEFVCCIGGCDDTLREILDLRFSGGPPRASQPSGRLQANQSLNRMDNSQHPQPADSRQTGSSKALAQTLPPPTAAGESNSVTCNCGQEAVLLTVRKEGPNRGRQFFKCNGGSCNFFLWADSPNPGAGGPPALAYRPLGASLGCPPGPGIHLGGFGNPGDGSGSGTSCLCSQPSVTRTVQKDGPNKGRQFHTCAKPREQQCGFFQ
UniProt Q13472, 16-934 A95V: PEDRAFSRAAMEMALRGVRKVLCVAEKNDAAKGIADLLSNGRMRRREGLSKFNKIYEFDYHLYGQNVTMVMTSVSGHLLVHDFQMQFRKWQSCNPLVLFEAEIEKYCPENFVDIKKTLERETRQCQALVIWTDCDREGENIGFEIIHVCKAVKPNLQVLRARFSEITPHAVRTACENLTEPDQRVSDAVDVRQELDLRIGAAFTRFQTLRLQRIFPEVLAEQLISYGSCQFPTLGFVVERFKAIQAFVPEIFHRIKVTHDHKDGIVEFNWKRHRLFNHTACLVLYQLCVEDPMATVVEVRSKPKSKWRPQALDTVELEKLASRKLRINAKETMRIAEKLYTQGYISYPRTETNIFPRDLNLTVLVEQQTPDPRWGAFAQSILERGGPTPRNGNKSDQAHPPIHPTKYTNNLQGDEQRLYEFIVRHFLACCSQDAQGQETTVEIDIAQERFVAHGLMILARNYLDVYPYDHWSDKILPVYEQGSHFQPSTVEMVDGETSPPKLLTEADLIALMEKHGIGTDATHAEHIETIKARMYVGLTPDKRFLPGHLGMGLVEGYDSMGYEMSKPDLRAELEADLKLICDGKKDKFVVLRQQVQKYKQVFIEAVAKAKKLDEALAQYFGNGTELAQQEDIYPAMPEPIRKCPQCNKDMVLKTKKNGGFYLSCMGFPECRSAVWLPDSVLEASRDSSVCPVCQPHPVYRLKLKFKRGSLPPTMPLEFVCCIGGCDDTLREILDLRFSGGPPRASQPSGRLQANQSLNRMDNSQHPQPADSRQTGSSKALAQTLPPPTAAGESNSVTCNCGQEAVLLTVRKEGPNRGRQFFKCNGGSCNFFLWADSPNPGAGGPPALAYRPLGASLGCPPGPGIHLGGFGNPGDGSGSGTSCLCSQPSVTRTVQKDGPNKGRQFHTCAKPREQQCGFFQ

Experiments:
[1] = target: TOP3A Ala176Val (Homo sapiens) (UniProt Q13472); assay: EMSA; details: comparable to WT; 25 mM HEPES pH 7.5, 70 mM NaCl, 100 ug/ml BSA, 1 mM DTT, 10% glycerol; 10 fmol oligo, 0-250 fmol TOP3A in 20 ul; 37 C 15 min, then ice; 8% native PAGE in 0.5x TBE at 4 C; recombinant protein; residues 16-934; protein details: N-terminal TEV-cleavable 6xHis, cleaved; label: 5' 32P; single-stranded DNA
[2] = target: TOP3A Ala95Val (Homo sapiens) (UniProt Q13472); assay: EMSA; details: comparable to WT; 25 mM HEPES pH 7.5, 70 mM NaCl, 100 ug/ml BSA, 1 mM DTT, 10% glycerol; 10 fmol oligo, 0-250 fmol TOP3A in 20 ul; 37 C 15 min, then ice; 8% native PAGE in 0.5x TBE at 4 C; recombinant protein; residues 16-934; protein details: N-terminal TEV-cleavable 6xHis, cleaved; label: 5' 32P; single-stranded DNA

“ACCACATTAACAACATAAAACCCTCATTCACACGAGAAAACACCCTCATGTTCATACACCTATCCCCCATTCTCCTCCTA [EMSA substrate 80-mer]”: binds [1]; binds [2].
